Measurements as given in publication PMC8884905, “RECON syndrome is a genome instability disorder caused by mutations in the DNA helicase RECQL1” (The Journal of Clinical Investigation, 2022).
Results are given in words; binding and its absence hold for the method and conditions named. Binding seen in cells or lysates may run through a third protein. Some binding calls cover weakened binding; strength is not graded here.

Protein sequences, listed by entry. Tags and fused reporters are not part of them. Lines headed by an entry give the natural chain unless they say otherwise; changes in a name come on top.
UniProt P46063: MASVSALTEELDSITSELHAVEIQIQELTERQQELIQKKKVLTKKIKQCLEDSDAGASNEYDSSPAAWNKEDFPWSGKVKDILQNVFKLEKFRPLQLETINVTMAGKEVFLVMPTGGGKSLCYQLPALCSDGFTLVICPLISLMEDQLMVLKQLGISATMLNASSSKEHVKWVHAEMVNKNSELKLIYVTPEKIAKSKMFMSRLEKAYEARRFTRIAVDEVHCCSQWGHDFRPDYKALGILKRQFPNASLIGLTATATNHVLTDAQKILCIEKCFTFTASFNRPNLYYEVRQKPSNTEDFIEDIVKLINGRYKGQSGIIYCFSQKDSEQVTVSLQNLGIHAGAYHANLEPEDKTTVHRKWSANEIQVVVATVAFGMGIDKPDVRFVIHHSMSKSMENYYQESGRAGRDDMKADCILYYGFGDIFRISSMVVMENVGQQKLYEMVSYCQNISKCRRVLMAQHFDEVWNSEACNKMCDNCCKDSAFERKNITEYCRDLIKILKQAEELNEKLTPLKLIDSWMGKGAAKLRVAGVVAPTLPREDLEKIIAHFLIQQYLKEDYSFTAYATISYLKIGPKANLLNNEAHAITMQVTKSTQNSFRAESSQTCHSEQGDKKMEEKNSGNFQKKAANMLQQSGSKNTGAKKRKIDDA
UniProt P09874: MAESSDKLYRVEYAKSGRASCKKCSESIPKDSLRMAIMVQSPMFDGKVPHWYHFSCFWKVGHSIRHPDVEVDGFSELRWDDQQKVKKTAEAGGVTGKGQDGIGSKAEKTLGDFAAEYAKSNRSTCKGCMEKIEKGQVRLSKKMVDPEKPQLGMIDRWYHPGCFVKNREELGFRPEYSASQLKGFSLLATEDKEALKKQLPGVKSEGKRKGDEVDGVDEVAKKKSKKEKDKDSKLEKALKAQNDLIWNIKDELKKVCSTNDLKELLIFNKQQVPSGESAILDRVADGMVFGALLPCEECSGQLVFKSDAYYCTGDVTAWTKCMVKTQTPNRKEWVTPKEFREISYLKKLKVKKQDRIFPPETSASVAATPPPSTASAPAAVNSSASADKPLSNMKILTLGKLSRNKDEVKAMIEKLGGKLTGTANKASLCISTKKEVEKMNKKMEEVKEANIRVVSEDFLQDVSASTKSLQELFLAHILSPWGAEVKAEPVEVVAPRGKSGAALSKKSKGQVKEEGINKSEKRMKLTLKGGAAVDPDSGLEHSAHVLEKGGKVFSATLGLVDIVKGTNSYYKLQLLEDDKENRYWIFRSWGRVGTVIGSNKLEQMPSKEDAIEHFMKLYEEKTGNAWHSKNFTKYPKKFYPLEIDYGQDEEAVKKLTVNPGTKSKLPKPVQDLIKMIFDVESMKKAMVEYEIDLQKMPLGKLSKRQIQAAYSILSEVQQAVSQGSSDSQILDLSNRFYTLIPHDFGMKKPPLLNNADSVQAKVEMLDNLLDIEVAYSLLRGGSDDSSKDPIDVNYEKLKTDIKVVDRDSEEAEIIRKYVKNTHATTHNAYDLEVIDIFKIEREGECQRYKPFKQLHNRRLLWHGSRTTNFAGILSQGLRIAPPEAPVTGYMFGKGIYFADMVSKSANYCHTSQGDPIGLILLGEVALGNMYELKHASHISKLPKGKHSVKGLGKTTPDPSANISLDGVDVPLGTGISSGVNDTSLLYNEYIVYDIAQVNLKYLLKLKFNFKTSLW

Target: p.A459S mutant RECQL1 protein (in whole-cell extract) (human) (UniProt P46063)
Assay: co-IP; anti-RECQL1 antibody (5 ug, A300-450A) or nonspecific IgG on protein A agarose beads, 5 mg whole-cell extract; lysis buffer without EDTA, with 250 units/mL benzonase and 1.5 mM MgCl2

poly-ADP-ribose polymerase 1 (from UniProt P09874 1-1014)
binding: binds
